Reference: patent publication US20240254227A1
Positions count from the first letter of the chain named. Results are given in words; binding and its absence hold for the method and conditions named. Some entries that bind do so weakly or less than the wild type.

The chains behind the UniProt entries cited, without tags or fusion partners. Where a name states a change or a piece, a line headed by the entry shows the natural chain unless it says otherwise.
UniProt A8K4G0: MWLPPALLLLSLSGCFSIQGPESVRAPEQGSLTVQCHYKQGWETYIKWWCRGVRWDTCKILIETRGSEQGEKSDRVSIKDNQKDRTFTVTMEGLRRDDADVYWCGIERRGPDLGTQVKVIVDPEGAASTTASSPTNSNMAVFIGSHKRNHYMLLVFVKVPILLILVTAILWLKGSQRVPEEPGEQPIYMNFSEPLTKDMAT

T1: recombinant murine CD300LB overexpressed on BaF/3 cells (mouse) (UniProt Q3U497)
T1 sequence: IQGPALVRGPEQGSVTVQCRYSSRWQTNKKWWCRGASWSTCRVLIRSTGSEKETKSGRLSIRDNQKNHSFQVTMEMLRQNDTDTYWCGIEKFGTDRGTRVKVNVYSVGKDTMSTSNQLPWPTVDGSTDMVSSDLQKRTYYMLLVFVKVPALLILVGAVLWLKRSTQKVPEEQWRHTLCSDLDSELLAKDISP

T2: murine CD300LB on wild type mouse bone marrow macrophages (mouse) (UniProt Q3U497)
T2 sequence: T1 sequence

B1: anti-CD300LB antibody CD-12 (antibody, V domains shown)
VH: QIQLVQSGPELKKPGETVKISCKASGYTFTDYSMHWVRQAPGKGLKWMAWINTETGEATHADDFKGRFDFSLDTSASTAYLQIKNLKNEDTGIYFCVCYGSSYGMDYWGQGTSVTVSS
VL: DIVLTQSPASLPVSLGQRATISCRASKSVRTSGASYMHWYQQKPGQPPKLLIYLASNLKSGVPTRFSGSGSGTDFTLNIHPVEEEDAATYYCQHNREVPPTFGGGTKLEIK
B2: anti-CD300LB antibody CD-01 (antibody, V domains shown)
VH: RVQLQQSGAELVRPGASVTLSCKASGFTFTDFEMHWVKKTPVHGLEWIGAIDPESGNTAYNQKFRGKATLTADKSSSTAYMELRYLTSEDSAVYYCTPLISGADYWGQGTTLTVSS
VL: DVVMTQSPLSLPVSLGDQASISCRSSQSLVHSDGNTYLYWYLQKPGQSPKLLIYKVSNRFSGVPDRFSGSGSGTDFTFKISRVGAEDLGVYFCSQSTHVPWTFGGGTKLEII
B3: anti-CD300LB antibody CD-04 (antibody, V domains shown)
VH: QVQLQQSGAELVRPGASVTLSCRASGYTFTDFEMHWVKQTPLHGLEWIGAIAPETGGTAYNQKFKGKAILTADKSSSTAYVELRSLTSEDSAVYFCTRLGGMDYWGQGTSVTVSS
VL: B2 VL with S7T, S28T, S32N, D33N, K55Q, S61F, F78L, G84E, V90L, I112K
B4: anti-CD300LB antibody CD-05 (antibody, V domains shown)
VH: QVQLVQSGAEVKKPGASVKVSCKASGYTFSRYYINWVRQAPGQGLEWMGWINPNSGGTNYAQKFQGRVTMTRDTSTSTVYMELSSLRSEDTAVYYCTTDQLRFGKTGPYYGMDVWGQGTTVTVSS
VL: DIQMTQSPSSLSASVGDRVTITCRASQNIGTYLNWYQQKPGKAPKLLIYAASSLQSGVPSRFSGSGSGTDFTLTISSLQPEDFATYYCQQSYSDTLTFGGGTKVEIK
B5: anti-CD300LB antibody CD-06 (antibody, V domains shown)
VH: QVQLVQSGAEVKKPGASVKVSCKASGYTFTTYAVHWVRQAPGQGLEWMGIVNPNSGGTNYAQKFQGRVTMTRDTSTSTVYMELSSLRSEDTAVYYCARDIVPMNNFYNYYYGMDVWGQGTTVTVSS
VL: B4 VL with N28S, G30S, T31S, A51T, S53T, S93R, D94I, T95P, L96Y, G100Q
B6: anti-CD300LB antibody CD-09 (antibody, V domains shown)
VH: B5 VH with V51I
VL: B4 VL with N28S, G30S, T31S, A51T, S53T, S93R, D94I, T95P, L96Y, G100Q
B7: anti-CD300LB antibody CD-07 (antibody, V domains shown)
VH: QVQLVQSGAEVKKPGASVKVSCKASGYTFTNYRMHWVRQAPGQGLEWMGWINPNSGGTIYAQKFQGRVTMTRDTSTSTVYMELSSLRSEDTAVYYCARDLDYWGQGTLVTVSS
VL: B4 VL with R24Q, N28D, G30S, T31N, A50G, D94T, T95P, L96W, G100P
B8: anti-CD300LB antibody CD-08 (antibody, V domains shown)
VH: EVQLLESGGGLVQPGGSLRLSCAASGFTFSNAWMSWVRQAPGKGLEWVSVISGSGGRTYYADSVKGRFTISRDNSKNTLYLQMNSLRAEDTAVYYCARDGTTVAPKGMDVWGQGTTVTVSS
VL: DIQMTQSPSSLSASVGDRVTITCQASQDINNYVNWYQQKPGKAPKLLIYAASNLQSGVPSRFSGSGSGTDFTLTISSLQPEDFATYYCQQSYSPPYTFGQGTKLEIK
B9: anti-CD300LB antibody CD-13 (antibody, V domains shown)
VH: QIQLVQSGPELKKPGETVKISCKASGYTFTDYSMHWVKQAPGKGFKWMAWINTETGAPTHADDFRGRFAFSLETSASTAFLQISNLKTEDTATYFCVTFGKSYGMNYWGQGTSVTVSS
VL: B1 VL with P12S, R30G, T31S, A34S, M37L, K59E, T64A, D74E, R96A
B10: anti-CD300LB antibody CD-18 (antibody, V domains shown)
VH: DVQLQESGPDLVKPSQSLSLTCTVTGYSITSGYSWHWIRQFPDNKLEWMGYILSRGDTNFNPSLKSRISITRSTSNNQFFLHFNSVTTEDTATYYCARDFFDYWGQGTTLTVSS
VL: DVLMTQTPLSLPVSLGDQASISCRSSQSIVHSNGNTYLEWYLQKPGQSPKLLIYKVSDRFSGVPDRFSGSGSGTDFTLKISRVEAEDLGVYFCFQGSHVPYTFGGGTKLEIK
B11: anti-CD300LB antibody CD-14 (antibody, V domains shown)
VH: QIQLVQSGPELKKPGETVKISCKASGYTFTDYSLHWVKQTPEKNLKWMAWINTETGAPTYADDFKGRFAFSLETSSNTAYLLINNLKNEDTATYFCALTMVNYWGQGTTLTVSS
VL: DIVMTQSQKFMSTSVGDRVSVTCKASQNVGIRVAWHQQKPGQSPKTLIYSTSYRYSGVPDRFTGSGSGTEFILTISNVQSEDLAEYFCQQYNSYPYTFGGGTKLEIK
B12: anti-CD300LB antibody CD-10 (antibody, V domains shown)
VH: QVQLQQSGPELVRPGVSVKISCKGSGYTFTDYAMHWVKQSHVRSREWIGVIGTYNGHTNYNQKFKGKATMTVDKSSSTAYLELARLTSEDSAIYYCARSGSYYYSMDYWGQGTSVTVSS
VL: QIVLTQSPAIMSASPGEKVTMTCSASSSVNYMHWYQQKSGTSPKRWIYDTSKLSSGVPARFSGSGSGTSYSLTISTMEAEDAATYYCQQWSSNPPMTFGGGTKLEIK
B13: anti-CD300LB antibody CD-11 (antibody, V domains shown)
VH: QIQLVQSGPEVKKPGETVKISCKASGYTLTDYSMHWVMQTPGTGLKWMAWMNTETGEPTYADDFKGRFAFSLETSAGTAYLQIDNLKNEDTATYFCATYGKSYGMKYWGQGTSVTVSS
VL: DIVLTQSPPSLAVSLGQRATISCRATKSVSPYLHWYQQTPGQPPKLLIYLASNLDSGVPARFSGSGSGTDFTLNIHPVEEEDAATYYCQHNKELPPTFGGGTRLEIK
B14: anti-CD300LB antibody CD-15 (antibody, V domains shown)
VH: QIQLVQSGPELKKPGETVKISCQVSGYTFTDYSMHWLKQAPGKGLKWMAWINTETGESTYTDEFKGRFVFSLETSVRTAYLKINNLKNEDTATYFCGTYGSSYGMAYWGQGTSVTVSS
VL: B1 VL with R30S, A34S, M37L, N57K, K59E, T64A, S67R
B15: anti-CD300LB antibody CD-16 (antibody, V domains shown)
VH: QIQLVQSGPELKKPGETVKISCKASGYTFTDYSMHWVKQAPGKGLKWMAWINTETGEPTYADDFRGRFAFSLETSGRTAYLEINNLRNEDTATYFCVTYGSSYGMAYWGQGTSVTVSS
VL: B1 VL with P12A, R30S, T31R, A34Y, M37L, N57K, K59E, T64A, E84A, V98I
B16: anti-CD300LB antibody CD-17 (antibody, V domains shown)
VH: QIQLVQSGPELKKPGETVKISCKASGYTLTDYSMHWVKQAPGKGLKWMGWINTETGEPRYGDDFKGRFAFSLETSASSAYLQINNLKNDDTATYFCATYGRSYGMDFWGQGTSVTVSS
VL: B1 VL with P12A, R30S, T31P, A34H, T64A, E85G, V98L, T106S

Biological target: T1, recombinant murine CD300LB overexpressed on BaF/3 cells (mouse)
Assay: flow cytometry, BaF/3 cells overexpressing muCD300LB

binding, binds:
B1

Biological target: recombinant human CD300LB overexpressed on Jurkat cells (human) (UniProt A8K4G0)
Assay: flow cytometry, geometric mean (APC-A), Jurkat cells overexpressing huCD300LB

binding, binds:
B2, B3, B4, B5, B6, B7, B8

Biological target: murine CD300LB-Fc (mouse)
Assay: SPR (Carterra LSA), antibody immobilised

binding, binds:
B1

Biological target: T2, murine CD300LB on wild type mouse bone marrow macrophages (mouse)
Assay: flow cytometry, mouse bone marrow macrophages

binding, binds:
B1

Biological target: recombinant human CD300LB overexpressed on Jurkat cells (human) (UniProt A8K4G0)
Assay: flow cytometry, stable Jurkat cells

binding, binds:
B2, B3, B9, B10, B5, B11

Biological target: murine CD300LB stably expressed on Jurkat cells (mouse) (UniProt Q3U497)
Assay: flow cytometry, stable Jurkat cells

binding, binds:
B12, B2, B13, B9, B1, B14, B15, B16, B10, B11
